Publication PMC5459830

Assays:
[1] = biological target: GhJAZ3-D (Gossypium hirsutum (upland cotton)); assay: two-hybrid; GhMYC2/3, GhNINJA, GhMYB2, GhMYB23, GhMYB25, GhMYB25-like or GhDEL65 in pGADT7, GhJAZ in pGBKT7; yeast mating; growth on QDO (SD-Trp/-Leu/-Ade/-His) medium
[2] = biological target: GhJAZ5-A (Gossypium hirsutum (upland cotton)); assay: as above
[3] = biological target: GhJAZ10-A (Gossypium hirsutum (upland cotton)); assay: as above
[4] = biological target: GhJAZ11-D (Gossypium hirsutum (upland cotton)); assay: as above
[5] = biological target: GhJAZ1-D (Gossypium hirsutum (upland cotton)); assay: as above
[6] = biological target: GhJAZ13-D (Gossypium hirsutum (upland cotton)); assay: as above
[7] = biological target: GhJAZ12-D (Gossypium hirsutum (upland cotton)); assay: as above
[8] = biological target: GhJAZ2-A (Gossypium hirsutum (upland cotton)); assay: as above
[9] = biological target: GhJAZ7-A (Gossypium hirsutum (upland cotton)); assay: as above
[10] = biological target: cYFP-GhJAZ3-D (Gossypium hirsutum (upland cotton)); assay: split reporter; BiFC: cYFP-GhJAZ and nYFP fusions coexpressed for 48 hours in Nicotiana benthamiana leaves by Agrobacterium (GV3101) coinfiltration; YFP fluorescence by confocal microscopy

Measured: binding

B1: GhDEL65 (protein, UniProt Q9ATD7 1-620)
chain: MSTGVQHQERVPMNLKKQLALAVRNIQWSYAIFWSISTRQPGVLEWGEGYYNGDIKTRKTVQSVELNTDQLSLQRSEQLRQLYESLSAGESSPQAKRPSAALSPEDLTDTEWYYLVCMSFVFNIGQGLPGRTLSSGQPVWLCNAHCADSKVFGRSLLAKSASIQTAVCFPFSGGVVELGVTDLVFEDLSLIQRVKTLLLDDPQPIVSKRSIQVDGMNNDLACPALDPLILATKLSPILGCEQLETVSPDDSPDGLEPKQSREDSLLIEGINGGASQVQSWQFMDEEFSNCVHHSLNSSDCISQTIADHRKVVPLCRGENDNGLQDVEECNQTKLTSFDRQNDDRHFHEVLSALFKSSHPLILGPQFRNSNKESSFIRWQKNGLKPQKERDETPQKLLKKILFLVPHMHDRGLIESPETNAVRDAAWRPEADEICGNHVLSERKRREKINERLMMLKSLVPANNKADKVSILDVTIEYLQTLERRVAELESCRKSEARTKIERTSDNNGKKSSLSKRKAYDVVDEADQEIGYVASKDGSTDKVTLSMNNKELLIEFKCPWREGILLEVMDALSILNLDCHSVQSSTTEGILSLTIKSKYKGSSVAKAGPIEQALQRIASKC
binds: [1]
not listed: [10]
no binding: all other assays above

B2: nYFP-GhDEL65 (protein, UniProt Q9ATD7 1-620)
chain: B1 chain
no binding: [10]

These are yes or no findings as the source states them, for the method shown. For some of these results: Binding can be weak; no strength is given. For some of these results: In cells and extracts the contact can be indirect. For some of these results: Where a sequence is shown, tags or fusion partners need not be part of it.
